# From the supplement of paper PMC9233669
# Variants at the background level are over-represented here.
# Tests used:
# biotinyl-Trp-oxazolone = assay: self-aminoacylation, catalytic enhancement (BWO) (fold over background); higher = more active; k-Seq, kA / k0A0; sequences stand for … in GGGAAUGGAUCCACAUCUACGAAUUC…UUCACUGCAGACUUGACGAAGCUG
# Outline: (§1)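 Mutagenized RNA pools with a 21-nt variable region (0.43 μM) reacted with each biotinyl-aminoacyl-oxazolone at 2–1250 μM. Reactions ran in 50 μL HEPES/NaCl/KCl/MgCl2/CaCl2 buffer with 5% acetonitrile, pH 6.9–7.0, for 90 minutes at room temperature. Streptavidin-captured RNA was quantified by triplicate qPCR and Illumina sequencing, and per-sequence fraction reacted was fit to a pseudo-first-order model with 1000 bootstraps. Catalytic enhancement is median kA divided by the uncatalyzed rate, the low-activity peak of a bimodal Gaussian fit.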
# biotinyl-Leu-oxazolone = assay: self-aminoacylation, catalytic enhancement (BLO) (fold over background); higher = more active; k-Seq, kA / k0A0; sequences stand for … in GGGAAUGGAUCCACAUCUACGAAUUC…UUCACUGCAGACUUGACGAAGCUG
# Outline: as §1
# biotinyl-Ile-oxazolone = assay: self-aminoacylation, catalytic enhancement (BIO) (fold over background); higher = more active; k-Seq, kA / k0A0; sequences stand for … in GGGAAUGGAUCCACAUCUACGAAUUC…UUCACUGCAGACUUGACGAAGCUG
# Outline: as §1
# biotinyl-Met-oxazolone = assay: self-aminoacylation, catalytic enhancement (BMO) (fold over background); higher = more active; k-Seq, kA / k0A0; sequences stand for … in GGGAAUGGAUCCACAUCUACGAAUUC…UUCACUGCAGACUUGACGAAGCUG
# Outline: as §1
# biotinyl-Phe-oxazolone = assay: self-aminoacylation, catalytic enhancement (BFO) (fold over background); higher = more active; k-Seq, kA / k0A0; sequences stand for … in GGGAAUGGAUCCACAUCUACGAAUUC…UUCACUGCAGACUUGACGAAGCUG
# Outline: as §1
# biotinyl-Val-oxazolone = assay: self-aminoacylation, catalytic enhancement (BVO) (fold over background); higher = more active; k-Seq, kA / k0A0; sequences stand for … in GGGAAUGGAUCCACAUCUACGAAUUC…UUCACUGCAGACUUGACGAAGCUG
# Outline: as §1
Sequence,self-aminoacylation (biotinyl-Trp-oxazolone),self-aminoacylation (biotinyl-Leu-oxazolone),self-aminoacylation (biotinyl-Ile-oxazolone),self-aminoacylation (biotinyl-Met-oxazolone),self-aminoacylation (biotinyl-Phe-oxazolone),self-aminoacylation (biotinyl-Val-oxazolone)
CUACUUCAAAGAAUAGGUCUG [Fam1A.1 aminoacylation ribozyme variant],0.59,0.699,0.816,0.784,0.944,0.746
CUACUUUAAAGAAUCGGUCUG [Fam1A.1 aminoacylation ribozyme variant],0.705,0.793,0.827,0.871,0.762,0.822
CCACACUUCAAGCAAUCAAUC [Fam1B.1 aminoacylation ribozyme variant],0.515,0.482,0.545,0.371,1.2,0.671
CUACUUCAAACAAUCCGCCUG [Fam1A.1 aminoacylation ribozyme variant],1.59,1.07,1.37,1.24,1.81,1.07
AAGUUUGCUACUAAUCGCAAG [Fam3.1 aminoacylation ribozyme variant],0.764,0.805,0.878,0.793,1.01,0.831
AUUACCAUGGUCCUCGAGUGA [Fam2.1 aminoacylation ribozyme variant],4.82,5.83,2.48,4.88,29.3,2.68
AAGUUAGCUAAUAGUCGCAGG [Fam3.1 aminoacylation ribozyme variant],1.77,1.62,1.76,1.6,4.27,1.8
AUUACCCUGGUAAUCGAAUGA [Fam2.1 aminoacylation ribozyme variant],0.45,0.788,1,0.935,0.469,0.971
CUACCUCAAGCAAUCGGUCUG [Fam1A.1 aminoacylation ribozyme variant],1.24,0.991,1.02,0.963,1.26,1.02
CCACACCUCAUGCAAUCGGUC [Fam1B.1 aminoacylation ribozyme variant],0.975,0.685,0.959,0.839,1.19,1.05
CUACUACAAAUAAUCGGUCUG [Fam1A.1 aminoacylation ribozyme variant],0.746,0.756,0.722,0.581,0.93,0.769
AAGUUUGCUAAUAGCGGCAAG [Fam3.1 aminoacylation ribozyme variant],0.924,0.575,0.668,0.508,0.964,0.646
AAGUUUCCUAAUAGGCGCAAG [Fam3.1 aminoacylation ribozyme variant],0.84,1.12,0.886,1.14,0.658,0.874
UACUUUGCUAAUAGUCGCAAG [Fam3.1 aminoacylation ribozyme variant],1.46,1.86,1.75,1.66,2.71,1.33
AAGUUUGCAAAAAGUCGCAAG [Fam3.1 aminoacylation ribozyme variant],0.831,0.938,0.902,1.07,1.72,0.733
AUUACCCCGGUCAUCGGGUGA [Fam2.1 aminoacylation ribozyme variant],12.7,15.9,5.57,14.4,103,7.32
CAACUUCAAACAAUCGGUCAG [Fam1A.1 aminoacylation ribozyme variant],11.9,1.2,1.32,1.14,19.5,1.22
AUUGCCCUGGUCGUCGAGUGA [Fam2.1 aminoacylation ribozyme variant],1.41,1.34,1.13,1.57,8.62,1.35
AAGUUUGCUAACAGUCGCAAC [Fam3.1 aminoacylation ribozyme variant],0.746,0.738,0.931,0.839,1.18,0.834
AUUACCCUGGUCAUCGAAUCA [Fam2.1 aminoacylation ribozyme variant],0.463,0.853,0.88,0.861,0.559,0.822
CGACUUCACACAAUCGGUCUG [Fam1A.1 aminoacylation ribozyme variant],1.01,1.23,1.05,0.934,1.07,1.14

Sequence,self-aminoacylation (biotinyl-Trp-oxazolone),self-aminoacylation (biotinyl-Leu-oxazolone),self-aminoacylation (biotinyl-Ile-oxazolone),self-aminoacylation (biotinyl-Met-oxazolone),self-aminoacylation (biotinyl-Phe-oxazolone),self-aminoacylation (biotinyl-Val-oxazolone)
AAGUUUGCUAAGGGUCGCAAG [Fam3.1 aminoacylation ribozyme variant],0.784,0.52,0.706,0.629,0.498,0.757
CUACUUCAAACAAUCUGUCUC [Fam1A.1 aminoacylation ribozyme variant],0.982,0.638,0.659,0.708,1.64,0.751
ACACACAUCAAGCAAUCGGUC [Fam1B.1 aminoacylation ribozyme variant],1.37,1.17,1.3,1.14,1.9,1.17
CUAAUUCAAGCAAUCGGUCUG [Fam1A.1 aminoacylation ribozyme variant],0.753,0.714,0.841,0.831,1.44,0.846
AAGUUUGCUACUAGUCGAAAG [Fam3.1 aminoacylation ribozyme variant],1,0.858,0.948,0.791,0.954,0.861
CAACUUCCAACAAUCGGUCUG [Fam1A.1 aminoacylation ribozyme variant],1.14,0.985,1.13,1.15,1.69,0.929
AAGUUUGCUAAUCAUCGCAAG [Fam3.1 aminoacylation ribozyme variant],0.73,0.683,0.726,0.517,1.04,0.747
CCAGACUUAAAGCAAUCGGUC [Fam1B.1 aminoacylation ribozyme variant],0.831,1.1,1.06,0.997,0.854,1.07
CUACUUCAAAUAAUAGGUCUG [Fam1A.1 aminoacylation ribozyme variant],0.599,0.636,0.751,0.561,0.75,0.66
ACGUUUGCUAAUAGUCGCAUG [Fam3.1 aminoacylation ribozyme variant],1.87,2.5,2.21,2.14,3.06,1.97
CCACACUUCAAGCAAUCGUGC [Fam1B.1 aminoacylation ribozyme variant],0.46,0.425,0.546,0.55,0.571,0.768
CUACUUCAAACAAUCGGGCGG [Fam1A.1 aminoacylation ribozyme variant],1.79,1.31,1.63,1.53,1.71,1.4
AUUCACCUCGGUCAUCGUGUG [Fam2.2 aminoacylation ribozyme variant],0.839,1.1,0.786,0.955,3.14,1.09
CUACAUCAAACAUUCGGUCUG [Fam1A.1 aminoacylation ribozyme variant],1.4,1.38,1.41,1.37,1.48,1.37
AUUGCCCUGGACAUCGAGUGA [Fam2.1 aminoacylation ribozyme variant],5.92,5.58,2.41,5.71,24.8,3.11
CCAUACUUCAAGCAAUGGGUC [Fam1B.1 aminoacylation ribozyme variant],0.627,0.926,1.04,0.972,0.918,1
CCACACUUCAAGCAAAGGGUC [Fam1B.1 aminoacylation ribozyme variant],0.431,0.481,0.575,0.44,0.81,0.58
CCACUUCAAACAAUCGGUCAG [Fam1A.1 aminoacylation ribozyme variant],9.79,1.03,1.01,0.992,13.7,1.04
AAGUUUGGUAAUAGUAGCAAG [Fam3.1 aminoacylation ribozyme variant],0.787,0.878,1.01,1.08,0.668,0.882
CUACUUCAAACGAUCUGUCUG [Fam1A.1 aminoacylation ribozyme variant],0.578,0.564,0.701,0.769,0.904,0.779
AAGAUUCCUAAUAGUCGCAAG [Fam3.1 aminoacylation ribozyme variant],0.755,0.939,1.26,0.951,0.831,1.53
